Test results: patent publication US20040219523

Key:
Experiment in all cases: activity assay
[1] = target: lysozyme, hen egg white (Gallus gallus) (UniProt P00698); conditions: purified native protein
[2] = target: ppERK2 (diphosphorylated ERK) (UniProt P28482); conditions: purified recombinant protein, protein details: diphosphorylated form
[3] = test system: ERK2 (non-phosphorylated MAP kinase ERK); conditions: purified recombinant protein
[4] = allosteric cleavage sensitive to ERK concentration, label: internal 32P, dose not given here
[5] = relative ppERK dependence of cleavage, dose not given here
[6] = ERK-dependent ligation, dose not given here

Which “functional effect of the aptamer” value ([1]; self-ligation increased by 1 uM lysozyme) does the source give for “GGACCUCGGCGAAAGCUAACGUCUCAUGGCUAAAUUGCCAUGUUGCUACAAAUGAUAUGACUAGAGAGGUUAAGGUGCGAGCCGAGAGGCUCGCACUG [C.lys.L1.C]” here?
The value was “active”.

With “GGACCUCGGCGAAAGCUAACGUCUCAUGGCUAAAUUGCCAUGUUGCUACAAAUGAUAUGACUAGAGAGGUUAGCGAGAGUG [C.lys.L1.A]” as the sequence, how does the “functional effect of the aptamer” value ([1]; no ligation observed, stem length critical, dose not given here) read?
The value was “not active”.

Which “functional effect of the aptamer” value ([1]; self-ligation increased by 1 uM lysozyme, also in HeLa extract) does the source give for “GGACCUCGGCGAAAGCUAACGUCUCAUGGCUAAAUUGCCAUGUUGCUACAAAUGAUAUGACUAGAGAGGUUAGGUGCGAGAGCACUG [C.lys.L1.B]” here?
Its value is “active”.

How did the “functional effect of the aptamer” value ([2]; specifically activated by ppERK, 1 uM protein, 10 mM MgCl2) turn out when “GGACUUCGGCGAAAGCCGUUCGACCACGGUCAGACGCUAGCGAAUUGGUUCCUCGAAAGGGGAAAGCGUUAUUAAGAAACCAAAAUGAUUGUCUUAGACAGGAGGUUAGGUGCGGCUUUGGUCCAAGGACAUCUCGAAU [ppERK ligase construct 33 (TK.16.118.M)]” was run?
Its value is “active”.

Which “functional effect of the aptamer” value ([3]; switch factor and ERK modulation KD unchanged relative to 3-piece ligase, dose not given here) does the source give for “GGACUUCGGCGAAAGCCGUUCGACCAGCUAAGGAGGAUUUCCGAAAGCGGCUACGGCCGCCAGCUCUUAGACAGGAGGUUAGGUGCGAGAGCACU [1-piece ligase construct 28]” here?
Its value is “active”.

Which “functional effect of the aptamer” value [3, 4] does the source give for “GGGCGACCCUGAUGAGCCUUCUAAGGAGGAUUUCCGAAAGCGGCACGGUCCGCCAGACGUCGAAACGGUGAAAGCCGUAGGUUGCC [hammerhead NASM construct 1-2]” here?
The value was “active”.

For “GGGCGACCCUGAUGAGCCUUGCAGACGCUAGCGAAUUGGUUCCUCGAAAGGGGAAAGCGUUAUUAAGAAACCAAAAUGUACGUCGAAACGGUGAAAGGCCGUAGGUAGCC [ppERK hammerhead construct 12]”, which “functional effect of the aptamer” value [2, 5] is on record?
The value was “active”.

Which “functional effect of the aptamer” value ([3]; allosteric cleavage, dose dependent at 5-100 nM ERK, suppressed by staurosporine and iodotubercidin, label: internal 32P) does the source give for “GGGCGACCCUGAUGAGGGUCGCUAAGGAGGAUUUCCGAAAGCGGCACGGUCCGCCAGACGUCGAAACGGUGAAAGCCGUAGGUUGCC [hammerhead NASM construct 1-14]” here?
Its value is “active”.

What about the “functional effect of the aptamer” value ([2]; significant cleavage only with non-phosphorylated ERK, label: internal 32P, dose not given here) of the same sequence?
The value was “not active”.

With “GGGCGACCCUGAUGAGUCACGCAGACGCUAGCGAAUUGGUUCCUCGAAAGGGGAAAGCGUUAUUAAGAAACCAAAAUGUGUUACGAAACGGUGAAAGGCCGUAGGUAGCC [ppERK hammerhead construct 6]” as the sequence, how does the “functional effect of the aptamer” value [2, 5] read?
The value was “active”.

With “GGGCGACCCUGAUGAGUCACGCAGACGCUAGCGAAUUGGUUCCUCGAAAGGGGAAAGCGUUAUUAAGAAACCAAAAUGUGUUGCGAAACGGUGAAAGGCCGUAGGUAGCC [ppERK hammerhead construct 10]” as the sequence, how does the “functional effect of the aptamer” value [2, 5] read?
The value was “active”.

“GGGCGACCCUGAUGAGUCUUCUAAGGAGGAUUUCCGAAAGCGGCACGGUCCGCCAGUACGUCGAAACGGUGAAAGCCGUAGGUUGCC [hammerhead NASM construct 1-13]” was tested. Which “functional effect of the aptamer” value [3, 4] did it give?
The value was “active”.

For “UGCACUGGACUUCGGCGAAAGCCGUUCGACCACGCUAAGGAGGAUUUCCGAAAGCGGCUACGUGCCGCCAGUGUCUUAGACAGGAGGUUAGGUGCCGUCCGACUGAUCUCGGAGUUAAACG [3-piece ligase construct 17 (clone A, DG.20.58A)]”, which “functional effect of the aptamer” value [3, 6] is on record?
The value was “active”.

Which “functional effect of the aptamer” value ([3]; ERK-dependent ligation, dose dependent 0-3.2 uM, works in 10% 293 extract, inhibited by staurosporine, 10 mM MgCl2, 100 mM NaCl, 30 mM Tris pH 7.5) does the source give for “UGCACUGGACUUCGGCGAAAGCCGUUCGACCAGCUAAGGAGGAUUUCCGAAAGCGGCUACGUGCCGCCAGCUCUUAGACAGGAGGUUAGGUGCCGUCCGACUGAUCUCGGAGUUAAACG [3-piece ligase construct 19 (clone E, DG.20.58E)]” here?
The value was “active”.

Which “functional effect of the aptamer” value [3, 6] does the source give for “UGCACUGGACUUCGGCGAAAGCCGUUCGACCAGCUAAGGAGGAUUUCCGAAAGCGGCUACGUGCCGCCAGUUCUUAGACAGGAGGUUAGGUGCCGUCCGACUGAUCUCGGAGUUAAACG [3-piece ligase construct 18 (clone B)]” here?
The value was “active”.

For part of these data: No signal at the amounts used counts as a negative. For part of these data: For at least one entry, the source does not settle the construct or the ends of the probe.
